Test results as given in the supplement of paper PMC10849652.
The other results are listed elsewhere or left out.

Sequences of proteins named here, by UniProt entry; tags and fusion partners are left off. A change or cut given only in a name is not applied to a line headed by its entry.
UniProt P52272: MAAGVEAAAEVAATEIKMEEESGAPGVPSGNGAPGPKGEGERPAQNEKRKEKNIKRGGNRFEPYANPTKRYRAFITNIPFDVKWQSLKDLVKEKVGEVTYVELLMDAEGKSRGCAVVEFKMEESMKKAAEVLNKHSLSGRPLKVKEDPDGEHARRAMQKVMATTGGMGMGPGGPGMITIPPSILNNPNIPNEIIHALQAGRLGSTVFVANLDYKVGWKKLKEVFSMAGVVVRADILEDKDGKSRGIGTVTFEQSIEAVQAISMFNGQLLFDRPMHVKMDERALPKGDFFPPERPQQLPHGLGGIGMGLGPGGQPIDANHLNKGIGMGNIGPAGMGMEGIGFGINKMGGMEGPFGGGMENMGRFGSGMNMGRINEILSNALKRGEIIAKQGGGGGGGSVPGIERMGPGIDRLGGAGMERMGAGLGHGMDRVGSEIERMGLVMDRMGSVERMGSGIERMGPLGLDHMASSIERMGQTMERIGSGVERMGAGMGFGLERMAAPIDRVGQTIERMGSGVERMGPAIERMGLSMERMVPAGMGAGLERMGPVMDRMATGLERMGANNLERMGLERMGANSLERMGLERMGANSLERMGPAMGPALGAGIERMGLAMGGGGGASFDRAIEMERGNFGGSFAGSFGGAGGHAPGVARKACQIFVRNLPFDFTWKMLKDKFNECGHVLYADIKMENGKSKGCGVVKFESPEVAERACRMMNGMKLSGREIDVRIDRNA
UniProt Q58FG1, whole entry, looked up: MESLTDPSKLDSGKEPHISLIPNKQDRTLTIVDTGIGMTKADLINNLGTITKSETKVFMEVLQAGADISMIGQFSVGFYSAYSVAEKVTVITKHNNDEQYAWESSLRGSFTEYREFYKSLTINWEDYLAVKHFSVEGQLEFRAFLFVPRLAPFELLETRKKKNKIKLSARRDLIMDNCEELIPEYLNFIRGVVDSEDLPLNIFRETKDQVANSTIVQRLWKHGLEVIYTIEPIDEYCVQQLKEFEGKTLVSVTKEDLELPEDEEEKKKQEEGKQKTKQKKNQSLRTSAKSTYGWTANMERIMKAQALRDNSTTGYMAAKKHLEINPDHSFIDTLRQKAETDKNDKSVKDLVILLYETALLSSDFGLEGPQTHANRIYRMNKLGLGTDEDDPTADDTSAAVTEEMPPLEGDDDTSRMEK
UniProt P22626: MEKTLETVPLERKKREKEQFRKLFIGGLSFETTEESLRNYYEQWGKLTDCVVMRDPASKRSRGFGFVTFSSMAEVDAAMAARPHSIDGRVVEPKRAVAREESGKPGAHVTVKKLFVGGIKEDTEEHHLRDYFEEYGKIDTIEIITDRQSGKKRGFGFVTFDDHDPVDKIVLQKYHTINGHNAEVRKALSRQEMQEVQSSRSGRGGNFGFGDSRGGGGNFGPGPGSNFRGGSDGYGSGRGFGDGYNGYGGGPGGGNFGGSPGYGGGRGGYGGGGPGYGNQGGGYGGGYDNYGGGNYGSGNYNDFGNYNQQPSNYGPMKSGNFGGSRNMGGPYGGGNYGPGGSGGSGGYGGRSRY
UniProt P30519: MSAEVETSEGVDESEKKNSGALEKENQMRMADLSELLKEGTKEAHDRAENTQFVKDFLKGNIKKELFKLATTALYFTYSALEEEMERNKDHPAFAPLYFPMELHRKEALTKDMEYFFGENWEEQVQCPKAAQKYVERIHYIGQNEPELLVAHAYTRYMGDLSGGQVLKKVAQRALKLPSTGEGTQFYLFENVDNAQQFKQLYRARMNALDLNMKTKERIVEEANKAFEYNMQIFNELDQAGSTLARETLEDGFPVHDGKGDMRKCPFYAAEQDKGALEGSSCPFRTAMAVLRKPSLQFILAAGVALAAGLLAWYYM
UniProt P04792, whole entry, looked up: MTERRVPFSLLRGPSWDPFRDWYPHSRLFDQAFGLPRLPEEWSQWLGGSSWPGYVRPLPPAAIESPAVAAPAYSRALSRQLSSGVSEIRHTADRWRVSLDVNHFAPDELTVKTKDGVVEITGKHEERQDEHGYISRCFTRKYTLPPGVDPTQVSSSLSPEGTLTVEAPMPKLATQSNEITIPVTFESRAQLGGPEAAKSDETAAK
UniProt P00492: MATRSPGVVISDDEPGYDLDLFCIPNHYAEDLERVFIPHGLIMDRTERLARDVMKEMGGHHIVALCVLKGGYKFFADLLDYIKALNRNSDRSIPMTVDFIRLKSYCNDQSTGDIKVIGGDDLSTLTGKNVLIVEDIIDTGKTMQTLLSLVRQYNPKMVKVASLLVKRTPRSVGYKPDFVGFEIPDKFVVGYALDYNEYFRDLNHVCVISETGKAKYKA
UniProt P34931, whole entry, looked up: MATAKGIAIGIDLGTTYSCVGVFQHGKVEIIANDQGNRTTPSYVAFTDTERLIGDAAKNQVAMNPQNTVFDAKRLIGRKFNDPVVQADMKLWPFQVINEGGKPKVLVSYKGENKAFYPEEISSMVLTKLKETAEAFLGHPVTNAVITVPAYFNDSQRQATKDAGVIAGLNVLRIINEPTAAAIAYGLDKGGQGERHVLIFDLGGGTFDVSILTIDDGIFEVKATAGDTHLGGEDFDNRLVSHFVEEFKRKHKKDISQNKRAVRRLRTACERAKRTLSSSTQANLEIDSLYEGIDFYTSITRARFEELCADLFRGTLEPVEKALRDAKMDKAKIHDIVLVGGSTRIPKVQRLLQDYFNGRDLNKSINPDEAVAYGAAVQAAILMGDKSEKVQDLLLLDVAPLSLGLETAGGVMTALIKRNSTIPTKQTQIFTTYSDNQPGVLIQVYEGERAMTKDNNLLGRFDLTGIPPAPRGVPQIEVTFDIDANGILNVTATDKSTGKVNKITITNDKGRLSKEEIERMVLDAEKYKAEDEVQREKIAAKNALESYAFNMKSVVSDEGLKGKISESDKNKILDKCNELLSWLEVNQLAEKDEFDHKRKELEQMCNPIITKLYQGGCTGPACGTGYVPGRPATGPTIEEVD
UniProt O00291: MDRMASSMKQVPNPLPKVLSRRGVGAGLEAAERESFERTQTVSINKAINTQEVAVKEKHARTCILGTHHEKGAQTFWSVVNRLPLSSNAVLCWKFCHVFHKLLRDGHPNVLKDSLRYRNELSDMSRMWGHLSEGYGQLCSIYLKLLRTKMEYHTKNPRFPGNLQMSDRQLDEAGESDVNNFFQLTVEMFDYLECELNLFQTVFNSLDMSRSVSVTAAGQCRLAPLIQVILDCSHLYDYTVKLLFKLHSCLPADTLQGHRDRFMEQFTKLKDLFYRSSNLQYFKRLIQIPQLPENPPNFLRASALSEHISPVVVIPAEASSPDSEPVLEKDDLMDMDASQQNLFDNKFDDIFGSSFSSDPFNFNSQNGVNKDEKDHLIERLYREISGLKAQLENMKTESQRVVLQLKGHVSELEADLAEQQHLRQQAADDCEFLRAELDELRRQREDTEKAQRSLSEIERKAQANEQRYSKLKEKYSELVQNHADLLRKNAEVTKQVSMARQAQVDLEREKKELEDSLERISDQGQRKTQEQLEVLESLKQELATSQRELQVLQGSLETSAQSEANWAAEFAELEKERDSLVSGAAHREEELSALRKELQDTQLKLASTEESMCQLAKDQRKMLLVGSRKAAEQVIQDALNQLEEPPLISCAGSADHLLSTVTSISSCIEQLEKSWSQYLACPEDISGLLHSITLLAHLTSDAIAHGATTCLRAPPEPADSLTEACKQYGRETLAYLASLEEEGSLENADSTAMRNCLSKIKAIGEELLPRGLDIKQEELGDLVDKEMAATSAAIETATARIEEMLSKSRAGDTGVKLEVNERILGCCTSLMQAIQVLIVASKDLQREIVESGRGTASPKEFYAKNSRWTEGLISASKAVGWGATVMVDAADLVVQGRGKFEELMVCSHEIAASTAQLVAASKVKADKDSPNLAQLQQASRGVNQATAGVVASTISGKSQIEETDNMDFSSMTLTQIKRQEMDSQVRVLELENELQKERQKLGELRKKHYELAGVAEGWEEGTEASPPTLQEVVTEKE

What was measured:
Test in all cases: log2 fold change, soluble protein after heating vs DMSO (PISA); higher = thermal stabilisation; K562 cells, 10 uM, 30 min; active = over 0.2 and 3.5 SD of the protein, either way, in both replicates (recomputed)
[1] = compound: CC[C@@H]1C(=O)N(C)c2cnc(Nc3ccc(C(=O)NC4CCN(C)CC4)cc3OC)nc2N1C1CCCC1
How it was run: (§1)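 Values are thermal stability changes relative to control samples and are taken from duplicates. They are stated as log2 fold changes. Before quantification by TMTpro 16plex LC-MS/MS with equalised channel sums, K562 cells at 2×10^6 cells/mL were treated with 10 μM compound for 30 min, heated in aliquots for 3 min across 48°C-58°C, pooled, extracted in PBS with 0.5% NP-40 at 4°C, and centrifuged at 21,000xg for 90 min to give the soluble supernatant.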

volasertib = compound: CC[C@@H]1C(=O)N(C)c2cnc(Nc3ccc(C(=O)N[C@H]4CC[C@H](N5CCN(CC6CC6)CC5)CC4)cc3OC)nc2N1C(C)C [volasertib]
How it was run: as §1

[2] = compound: CC[C@H](C)N1C=C(C2=C(C=C(C=C21)C3=CN=C(C=C3)N4CCNCC4)C(=O)NCC5=C(C=C(NC5=O)C)C)C
How it was run: as §1

epoxomicin = compound: CC[C@H](C)[C@@H](C(=O)N[C@@H]([C@@H](C)O)C(=O)N[C@@H](CC(C)C)C(=O)[C@]1(CO1)C)NC(=O)[C@H]([C@@H](C)CC)N(C)C(=O)C [epoxomicin]
How it was run: as §1

[3] = compound: CCn1c(C(=O)N(C2CC2)C2CC2)cc2c3c(ncn3C)c(Nc3cc(C)n(C)n3)nc21
How it was run: as §1

[4] = compound: CCn1cc(-c2ccnc3[nH]c(-c4cccc(CN(C)C)c4)cc23)c(-c2ccc(NC(=O)N(C)C)cc2)n1
How it was run: as §1

[5] = compound: CN(C)CC(=O)Nc1ccc2[nH]c(=O)c3ccccc3c2c1
How it was run: as §1

rosiglitazone = compound: CN(CCOC1=CC=C(C=C1)C[C@H]2C(=O)NC(=O)S2)C3=CC=CC=N3 (racemic) [rosiglitazone]
How it was run: as §1

[6] = compound: CN1C2=C(C3=C1C(=O)N(N=C3)CC4=CC(=CC=C4)N)SC(=C2)S(=O)C
How it was run: as §1

[7] = compound: CN1CCC(CNc2ccc3ncc(-c4cccc(OC(F)(F)F)c4)n3n2)CC1
How it was run: as §1

saracatinib = compound: CN1CCN(CCOc2cc(OC3CCOCC3)c3c(Nc4c(Cl)ccc5c4OCO5)ncnc3c2)CC1 [saracatinib]
How it was run: as §1

sotrastaurin = compound: CN1CCN(c2nc(C3=C(c4c[nH]c5ccccc45)C(=O)NC3=O)c3ccccc3n2)CC1 [sotrastaurin]
How it was run: as §1

alvocidib = compound: CN1CC[C@H](c2c(O)cc(O)c3c(=O)cc(-c4ccccc4Cl)oc23)[C@H](O)C1 [alvocidib]
How it was run: as §1

Tubastatin A = compound: CN1CCc2c(c3ccccc3n2Cc2ccc(C(=O)NO)cc2)C1 [Tubastatin A]
How it was run: as §1

[8] = compound: CNC(=O)C1=CC=CC=C1NC2=NC(=NC=C2Cl)NC3=C(C=C(C=C3)N4CCOCC4)OC
How it was run: as §1

defactinib = compound: CNC(=O)c1ccc(Nc2ncc(C(F)(F)F)c(NCc3nccnc3N(C)S(C)(=O)=O)n2)cc1 [defactinib]
How it was run: as §1

rucaparib = compound: CNCc1ccc(-c2[nH]c3cc(F)cc4c3c2CCNC4=O)cc1 [rucaparib]
How it was run: as §1

[9] = compound: CNc1nc(-c2ccc3c(N)n[nH]c3c2)cc(N2C[C@@H](C(=O)NC3CCCCC3)CC[C@H]2C)n1
How it was run: as §1

encorafenib = compound: COC(=O)N[C@@H](C)CNc1nccc(-c2cn(C(C)C)nc2-c2cc(Cl)cc(NS(C)(=O)=O)c2F)n1 [encorafenib]
How it was run: as §1

[10] = compound: COC(=O)[C@H](CCSC)NC(=O)C1=C(C=C(C=C1)NC[C@H](CS)N)C2=CC=CC=C2
How it was run: as §1

Measured: log2 fold change

HNRNPM (UniProt P52272)
inactive: [1] -0.099 | volasertib -0.289 | [2] 0.105 | epoxomicin -0.153 | [3] -0.138 | [4] 0.193 | [5] -0.023 | rosiglitazone -0.121 | [6] 0.268 | [7] 0.071 | saracatinib -0.045 | sotrastaurin -0.163 | alvocidib 0.043 | Tubastatin A 0.094 | [8] 0.043 | defactinib 0.067 | rucaparib 0.358 | [9] 0.015 | encorafenib 0.169 | [10] -0.01

HSP90AA4P (UniProt Q58FG1)
inactive: [1] 0.08 | volasertib -0.147 | [2] -0.013 | epoxomicin -0.105 | [3] -0.005 | [4] 0.011 | [5] -0.149 | rosiglitazone 0.088 | [6] -0.01 | [7] -0.176 | saracatinib -0.041 | sotrastaurin 0.018 | alvocidib 0.109 | Tubastatin A -0.022 | [8] 0.069 | defactinib -0.004 | rucaparib -0.042 | [9] -0.028 | encorafenib 0.037 | [10] 0.087

HNRNPA2B1 (UniProt P22626)
inactive: [1] 0.215 | volasertib 0.116 | [2] -0.056 | epoxomicin -0.391 | [3] 0.022 | [4] 0.322 | [5] -0.135 | rosiglitazone -0.179 | [6] 0.365 | [7] 0.226 | saracatinib 0.021 | sotrastaurin 0.03 | alvocidib 0.314 | Tubastatin A -0.029 | [8] 0.067 | defactinib 0.435 | rucaparib 0.349 | [9] -0.036 | encorafenib 0.056 | [10] 0.069

HMOX2 (UniProt P30519)
active: volasertib -0.251
inactive: [1] -0.015 | [2] 0.074 | epoxomicin 0.009 | [4] -0.069 | [5] 0.008 | [6] 0.011 | [7] 0.054 | saracatinib -0.071 | sotrastaurin -0.04 | Tubastatin A 0.004 | [8] 0.03 | defactinib -0.049 | rucaparib 0.036 | [9] 0.15 | encorafenib 0.081 | [10] -0.038

HSPB1 (UniProt P04792)
inactive: [1] 0.023 | volasertib -0.064 | [2] 0.028 | epoxomicin -0.049 | [3] 0.016 | [4] 0.012 | [5] -0.005 | rosiglitazone 0.016 | [6] 0.096 | [7] 0.019 | saracatinib -0.117 | sotrastaurin -0.077 | alvocidib -0.013 | Tubastatin A -0.008 | [8] 0.028 | defactinib -0.023 | rucaparib 0.092 | [9] 0.015 | encorafenib 0.008 | [10] -0.027

HPRT1 (UniProt P00492)
inactive: [1] 0.014 | volasertib 0.063 | [2] -0.016 | epoxomicin 0.016 | [3] -0.03 | [4] -0.038 | [5] 0.001 | rosiglitazone 0.004 | [6] -0.034 | [7] 0.015 | saracatinib 0.05 | sotrastaurin 0.03 | alvocidib -0.046 | Tubastatin A -0.018 | [8] 0.027 | defactinib -0.004 | rucaparib -0.047 | [9] -0.054 | encorafenib -0.004 | [10] 0.005

Two consecutive entries from above, for reference:
HSP90AA4P (UniProt Q58FG1)
inactive: [1] 0.08 | volasertib -0.147 | [2] -0.013 | epoxomicin -0.105 | [3] -0.005 | [4] 0.011 | [5] -0.149 | rosiglitazone 0.088 | [6] -0.01 | [7] -0.176 | saracatinib -0.041 | sotrastaurin 0.018 | alvocidib 0.109 | Tubastatin A -0.022 | [8] 0.069 | defactinib -0.004 | rucaparib -0.042 | [9] -0.028 | encorafenib 0.037 | [10] 0.087

HNRNPA2B1 (UniProt P22626)
inactive: [1] 0.215 | volasertib 0.116 | [2] -0.056 | epoxomicin -0.391 | [3] 0.022 | [4] 0.322 | [5] -0.135 | rosiglitazone -0.179 | [6] 0.365 | [7] 0.226 | saracatinib 0.021 | sotrastaurin 0.03 | alvocidib 0.314 | Tubastatin A -0.029 | [8] 0.067 | defactinib 0.435 | rucaparib 0.349 | [9] -0.036 | encorafenib 0.056 | [10] 0.069

(list continues)

HSPA1L (UniProt P34931)
inactive: [1] -0.017 | volasertib 0.077 | [2] -0.084 | epoxomicin -0.021 | [3] 0.021 | [4] -0.077 | [5] -0.03 | rosiglitazone 0.04 | [6] -0.104 | [7] -0.098 | saracatinib 0.096 | sotrastaurin -0.024 | alvocidib -0.228 | Tubastatin A 0.115 | [8] 0.034 | defactinib -0.015 | rucaparib 0.018 | [9] -0.166 | encorafenib -0.049 | [10] -0.019

HIP1 (UniProt O00291)
inactive: [1] 0.027 | volasertib -0.23 | [2] -0.095 | epoxomicin 0.085 | [4] 0.031 | [5] -0.045 | [6] -0.063 | [7] -0.148 | saracatinib 0.078 | sotrastaurin -0.079 | Tubastatin A 0.038 | [8] 0.008 | defactinib -0.001 | rucaparib 0.065 | [9] -0.024 | encorafenib -0.048 | [10] -0.001
